Measurements: paper PMC3379983

By UniProt entry, the sequences of proteins in these tests, tags left out.
UniProt Q62940: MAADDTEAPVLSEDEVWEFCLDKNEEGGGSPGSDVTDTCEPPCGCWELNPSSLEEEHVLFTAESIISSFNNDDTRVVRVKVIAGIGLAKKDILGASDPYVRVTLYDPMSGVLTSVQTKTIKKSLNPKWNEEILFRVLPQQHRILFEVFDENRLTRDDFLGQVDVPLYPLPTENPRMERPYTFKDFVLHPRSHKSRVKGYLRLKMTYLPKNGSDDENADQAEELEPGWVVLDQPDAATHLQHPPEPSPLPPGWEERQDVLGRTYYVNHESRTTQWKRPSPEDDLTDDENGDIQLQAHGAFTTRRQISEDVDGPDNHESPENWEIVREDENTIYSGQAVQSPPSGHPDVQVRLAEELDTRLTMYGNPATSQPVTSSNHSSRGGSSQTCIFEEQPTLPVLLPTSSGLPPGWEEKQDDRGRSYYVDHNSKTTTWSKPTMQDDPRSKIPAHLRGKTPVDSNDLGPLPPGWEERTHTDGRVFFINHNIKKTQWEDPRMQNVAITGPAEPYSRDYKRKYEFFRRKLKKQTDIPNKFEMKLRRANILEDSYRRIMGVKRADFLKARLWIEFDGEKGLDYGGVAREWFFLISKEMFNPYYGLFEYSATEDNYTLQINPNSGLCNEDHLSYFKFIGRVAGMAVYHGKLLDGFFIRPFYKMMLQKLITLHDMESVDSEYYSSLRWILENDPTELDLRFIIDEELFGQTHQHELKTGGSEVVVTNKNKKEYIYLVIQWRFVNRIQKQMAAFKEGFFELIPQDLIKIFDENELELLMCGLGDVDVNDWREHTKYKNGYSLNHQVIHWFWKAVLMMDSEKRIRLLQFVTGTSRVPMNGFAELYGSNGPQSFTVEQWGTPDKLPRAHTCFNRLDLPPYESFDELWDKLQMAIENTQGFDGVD

Target: T1, MAK-V-FLAG protein (C-terminally FLAG-tagged mouse MAK-V protein kinase) (mouse) (UniProt O88866)
T1 sequence: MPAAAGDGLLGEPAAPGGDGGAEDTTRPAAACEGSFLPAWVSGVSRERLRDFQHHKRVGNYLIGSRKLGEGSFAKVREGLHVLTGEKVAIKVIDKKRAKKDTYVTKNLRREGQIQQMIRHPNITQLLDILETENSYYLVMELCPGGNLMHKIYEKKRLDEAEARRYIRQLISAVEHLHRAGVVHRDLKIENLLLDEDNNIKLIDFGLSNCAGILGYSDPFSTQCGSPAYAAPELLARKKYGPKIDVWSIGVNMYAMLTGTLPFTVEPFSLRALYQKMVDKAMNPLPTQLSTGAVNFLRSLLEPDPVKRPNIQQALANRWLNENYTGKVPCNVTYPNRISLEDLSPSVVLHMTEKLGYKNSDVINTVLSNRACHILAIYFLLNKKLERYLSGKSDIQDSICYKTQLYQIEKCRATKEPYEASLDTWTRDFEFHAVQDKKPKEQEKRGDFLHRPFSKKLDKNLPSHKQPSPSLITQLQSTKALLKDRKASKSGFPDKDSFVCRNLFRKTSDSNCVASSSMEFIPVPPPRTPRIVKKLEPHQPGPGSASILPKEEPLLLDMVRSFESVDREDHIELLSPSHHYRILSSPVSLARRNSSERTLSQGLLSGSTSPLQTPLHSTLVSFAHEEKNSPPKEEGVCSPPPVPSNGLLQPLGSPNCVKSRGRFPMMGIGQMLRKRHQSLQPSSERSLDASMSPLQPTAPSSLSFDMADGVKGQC
Test: affinity purification with mass spectrometry; lysates of doxycycline-induced and non-induced PC12TetOn cells on anti-FLAG M2 affinity gel, 4°C, 2 hrs; elution with FLAG peptide; band cut from gel, MALDI-TOF peptide fingerprint

Question: Which binding does the source give for “rat E3 ubiquitin ligase Nedd4 (endogenous in PC12TetOn cells) (from UniProt Q62940 1-887) (enzyme)” here?
Answer: binds

These are yes or no findings as the source states them, for the method shown. Binding seen in cells or lysates may run through a third protein. A yes stands for co-enrichment or nearness to the bait. Other partners may have been found. Sequences can lack the tags named with a protein.
